Binding data for seven molecules are collected here from patent publication US20060204512A1.

By UniProt entry, the sequences of proteins in these tests, tags left out. Where a name states a change or a piece, a line headed by the entry shows the natural chain unless it says otherwise. Residues count along the entry.
UniProt P52799: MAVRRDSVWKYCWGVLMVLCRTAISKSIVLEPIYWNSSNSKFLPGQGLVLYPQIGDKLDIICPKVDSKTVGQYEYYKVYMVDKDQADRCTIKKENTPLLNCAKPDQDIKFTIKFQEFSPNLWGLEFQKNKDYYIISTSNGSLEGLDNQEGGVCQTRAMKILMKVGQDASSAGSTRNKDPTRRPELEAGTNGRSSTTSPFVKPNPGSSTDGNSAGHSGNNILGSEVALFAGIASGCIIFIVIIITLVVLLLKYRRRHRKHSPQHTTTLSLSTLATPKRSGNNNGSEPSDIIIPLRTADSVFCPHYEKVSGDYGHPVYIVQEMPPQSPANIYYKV
ephrin B2 in Kaposi's sarcoma biopsy tumor cells: residues 28-333 of P52799
B2EC-AP reagent (protein fusion of Ephrin B2 ectodomain with placental alkaline phosphatase): residues 28-229 of P52799

Results are given in words; binding and its absence hold for the method and conditions named. Some binding calls cover weakened binding; strength is not graded here. For part of these data: Tags and fused reporters may be left off the sequences shown.

For test [1], the target named is B2EC-AP reagent (protein fusion of Ephrin B2 ectodomain with placental alkaline phosphatase) (UniProt P52799). Kind of test: Ephrin B2-AP binding to B4 proteins immobilized on Ni2+ resin or nitrocellulose membrane.
The target is the same in test [2]. Put plainly: biochemical assays; B4ECv3 on Ni-NTA-agarose, B2-AP 50 nM, PNPP colour.
Test [3] concerns the target ephrin B2 in Kaposi's sarcoma biopsy tumor cells (UniProt P52799). Put plainly: staining of Kaposi's sarcoma biopsy sections.
For test [4] the target is unchanged. Put plainly: staining of Kaposi's sarcoma biopsy sections, FITC-labeled anti-human Fc antibody.
Test [5] has the same target. Put plainly: staining of Kaposi's sarcoma biopsy section.
The target of test [6] is B2EC-AP reagent (protein fusion of Ephrin B2 ectodomain with placental alkaline phosphatase) (UniProt P52799). Kind of test: standard EphrinB2 binding assay of SP column fractions.
The target is the same in test [7]. Kind of test: magnetic beads, B2-AP, pnPP, after incubation in mouse serum at 37 C.

B1: B4-GCF2 (complete ectopic part of EphB4, C-terminally 6xHis tagged) (receptor)
chain: LEETLLNTKLETADLKWVTFPQVDGQWEELSGLDEEQHSVRTYEVCEVQRAPGQAHWLRTGWVPRRGAVHVYATLRFTMLECLSLPRAGRSCKETFTVFYYESDADTATALTPAWMENPYIKVDTVAAEHLTRKRPGAEATGKVNVKTLRLGPLSKAGFYLAFQDQGACMALLSLHLFYKKCAQLTVNLTRFPETVPRELVVPVAGSCVVDAVPAPGPSPSLYCREDGQWAEQPVTGCSCAPGFEAAEGNTKCRACAQGTFKPLSGEGSCQPCPANSHSNTIGSAVCQCRVGYFRARTDPRGAPCTTPPSAPRSVVSRLNGSSLHLEWSAPLESGGREDLTYALRCRECRPGGSCAPCGGDLTFDPGPRDLVEPWVVVRGLRPDFTYTFEVTALNGVSSLATGPVPFEPVNVTTDREVPPAVSDIRVTRSSPSSLSLAWAVPRAPSGAWLDYEVKYHEKGAEGPSSVRFLKTSENRAELRGLKRGASYLVQVRARSEAGYGPFGQEHHSQTQLDESEGWREQGSKRAILQIEGKPIPNPLLGLDSTRTGHHHHH
On to B1, for which, in test [1], the binding result is “binds”.

B2: GCF1 (globular, Cys-rich and the first FNIII domain of EphB4, 6xHis tagged) (receptor)
chain: LEETLLNTKLETADLKWVTFPQVDGQWEELSGLDEEQHSVRTYEVCEVQRAPGQAHWLRTGWVPRRGAVHVYATLRFTMLECLSLPRAGRSCKETFTVFYYESDADTATALTPAWMENPYIKVDTVAAEHLTRKRPGAEATGKVNVKTLRLGPLSKAGFYLAFQDQGACMALLSLHLFYKKCAQLTVNLTRFPETVPRELVVPVAGSCVVDAVPAPGPSPSLYCREDGQWAEQPVTGCSCAPGFAEGNTKCRACAQGTFKPLSGEGSCQPCPANSHSNTIGSAVCQCRVGYFRARTDPRGAPCTTPPSAPRSVVSRLNGSSLHLEWSAPLESGGREDLTYALRCRECRPGGSCAPCGGDLTFDPGPRDLVEPWVVVRGLRPDFTYTFEVTALNGVSSLATGPVPFEPVNVHHHHHH
Consider B2, for which the binding entry in test [1] is recorded as “binds”.

B3: B4EC-GC (Globular domain+Cys-rich domain of EphB4, 6xHis tagged) (receptor)
chain: LEETLLNTKLETADLKWVTFPQVDGQWEELSGLDEEQHSVRTYEVCEVQRAPGQAHWLRTGWVPRRGAVHVYATLRFTMLECLSLPRAGRSCKETFTVFYYESDADTATALTPAWMENPYIKVDTVAAEHLTRKRPGAEATGKVNVKTLRLGPLSKAGFYLAFQDQGACMALLSLHLFYKKCAQLTVNLTRFPETVPRELVVPVAGSCVVDAVPAPGPSPSLYCREDGQWAEQPVTGCSCAPGFEAAEGNTKCRACAQGTFKPLSGEGSCQPCPANSHSNTIGSAVCQCRVGYFRARTDPRGAPCTTPPSAHHHHHH
On to B3, for which the binding entry in test [1] is given as “binds”.

B4: B4ECv3 protein (receptor)
chain: LEETLLNTKLETADLKWVTFPQVDGQWEELSGLDEEQHSVRTYEVCEVQRAPGQAHWLRTGWVPRRGAVHVYATLRFTMLECLSLPRAGRSCKETFTVFYYESDADTATALTPAWMENPYIKVDTVAAEHLTRKRPGAEATGKVNVKTLRLGPLSKAGFYLAFQDQGACMALLSLHLFYKKCAQLTVNLTRFPETVPRELVVPVAGSCVVDAVPAPGPSPSLYCREDGQWAEQPVTGCSCAPGFEAAEGNTKCRACAQGTFKPLSGEGSCQPCPANSHSNTIGSAVCQCRVGYFRARTDPRGAPCTTPPSAPRSVVSRLNGSSLHLEWSAPLESGGREDLTYALRCRECRPGGSCAPCGGDLTFDPGPRDLVEPWVVVRGLRPDFTYTFEVTALNGVSSLATGPVPFEPVNVTTDREVPPAVSDIRVTRSSPSSLSLAWAVPRAPSGAWLDYEVKYHEKGAEGPSSVRFLKTSENRAELRGLKRGASYLVQVRARSEAGYGPFGQEHHSQTQLDESEGWREQGSKRAILQIEGKPIPNPLLGLDSTRTGHHHHHH
Take B4: in test [2], the binding result was “binds”.

B5: EphB4/Fc fusion protein (Fc fusion, UniProt P54760 16-539, looked up, not shown: a dimerising Fc or GST)
chain: LEETLLNTKLETADLKWVTFPQVDGQWEELSGLDEEQHSVRTYEVCDVQRAPGQAHWLRTGWVPRRGAVHVYATLRFTMLECLSLPRAGRSCKETFTVFYYESDADTATALTPAWMENPYIKVDTVAAEHLTRKRPGAEATGKVNVKTLRLGPLSKAGFYLAFQDQGACMALLSLHLFYKKCAQLTVNLTRFPETVPRELVVPVAGSCVVDAVPAPGPSPSLYCREDGQWAEQPVTGCSCAPGFEAAEGNTKCRACAQGTFKPLSGEGSCQPCPANSHSNTIGSAVCQCRVGYFRARTDPRGAPCTTPPSAPRSVVSRLNGSSLHLEWSAPLESGGREDLTYALRCRECRPGGSCAPCGGDLTFDPGPRDLVEPWVVVRGLRPDFTYTFEVTALNGVSSLATGPVPFEPVNVTTDREVPPAVSDIRVTRSSPSSLSLAWAVPRAPSGAVLDYEVKYHEKGAEGPSSVRFLKTSENRAELRGLKRGASYLVQVRARSEAGYGPFGQEHHSQTQLDESEGWREQLA
Take B5: the binding entry in test [3] and in test [4] was “binds” throughout.

B6: B4EC-AP reagent (protein fusion of EphB4 ectodomain with placental alkaline phosphatase) (receptor, UniProt P54760 16-539, looked up, not shown: large carriers)
chain: B5 chain
B6: the binding entry in test [5] was “binds”.

B7: biotinylated soluble EphB4 ectodomain protein (sB4) (receptor, UniProt P54760 16-539, looked up)
chain: B5 chain
modifications: biotin (EZ-Link Biotin Hydrazide) on periodate-oxidised carbohydrate chains
Consider B7, for which the binding result in test [6] and in test [7] was “binds” throughout.
